Results reported in ChEMBL document CHEMBL5120742, “Multi-target weapons: diaryl-pyrazoline thiazolidinediones simultaneously targeting VEGFR-2 and HDAC cancer hallmarks” (RSC Med Chem, 2021).

Columns and labels:
A549 = experiment: Antiproliferative activity against human A549 cells assessed as reduction in cell viability after 48 hrs by MTT assay; assay type: functional, cell-based; settings: A549, 48 h
Method in brief: (§1)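 MCF-7, K562, A549 and HT-29 lines were seeded in 96-well plates and kept overnight at 37 °C, 5% CO2, 95% humidity. They were then exposed to six concentrations (100 to 2.5) for 48 h. After PBS washes, MTT was added for 4 h at 37 °C and formazan was dissolved in DMSO. Absorbance was read at 570 nm. Survival is mean OD of treated wells over the negative control, and IC50 was derived from that.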

MCF7 = experiment: Antiproliferative activity against human MCF7 cells assessed as reduction in cell viability after 48 hrs by MTT assay; assay type: functional, cell-based; settings: MCF7, 48 h; method in brief: as §1

CC(=O)O[C@H]1C(=O)[C@@]2(C)[C@H]([C@H](OC(=O)c3ccccc3)[C@]3(O)C[C@H](OC(=O)[C@H](O)[C@@H](NC(=O)c4ccccc4)c4ccccc4)C(C)=C1C3(C)C)[C@]1(OC(C)=O)CO[C@@H]1C[C@@H]2O [PACLITAXEL]
IC50 (A549): 290 nM
IC50 (MCF7): 350 nM
